According to the supplement of paper PMC10331698:
± gives the standard deviation of the averaged measurements. Small differences around the control level are noise.

Assays:
Assay in all cases: level (log10 ratio to DMSO vehicle control); higher = higher biomarker level / cell amount than vehicle control
Perfluorodecanoic acid = compound: O=C(O)C(F)(F)C(F)(F)C(F)(F)C(F)(F)C(F)(F)C(F)(F)C(F)(F)C(F)(F)C(F)(F)F [Perfluorodecanoic acid]; conditions: in DMSO
Protocol: (§1)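 BioMAP Diversity Plus panel of 12 human primary cell co-culture systems (3C, 4H, LPS, SAg, BT, BF4T, BE3C, CASM3C, HDF3CGF, KF3CT, MyoF, Mphg). Compounds were added 1 h before stimulation and left for 24 h (MyoF 48 h; BT 72 h for soluble read-outs or 6 d for IgG). Biomarkers were read by ELISA, cytotoxicity by SRB, PBMC viability and proliferation by Alamar Blue. Each well value was divided by the mean of 8 DMSO control wells on the same plate and log10 transformed; duplicate blinded samples were tested at 4 concentrations.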

Perfluorooctanamidine = compound: N=C(N)C(F)(F)C(F)(F)C(F)(F)C(F)(F)C(F)(F)C(F)(F)C(F)(F)F [Perfluorooctanamidine]; conditions: in DMSO
Protocol: as §1

[1] = compound: OCC(F)(F)OC(F)(F)C(F)(F)OC(F)(F)C(F)(F)OC(F)(F)CO [1H,1H,11H,11H-Perfluorotetraethylene glycol]; conditions: 2200 nM; in DMSO
Protocol: as §1

[2] = compound: O=C(O)C(F)(F)OC(F)(F)C(F)(F)OC(F)(F)C(F)(F)OC(F)(F)C(F)(F)C(F)(F)C(F)(F)F [Perfluoro-3,6,9-trioxatridecanoic acid]; conditions: 2200 nM; in DMSO
Protocol: as §1

[3] = compound: O=C(CC(=O)C(F)(F)C(F)(F)C(F)(F)F)c1cccs1 [(Perfluorobutyryl)-2-thenoylmethane]; conditions: 2200 nM; in DMSO
Protocol: as §1

[4] = compound: O=C(O)C(F)(F)OC(F)(F)C(F)(F)OC(F)(F)F [Perfluoro-3,6-dioxaheptanoic acid]; conditions: 2200 nM; in DMSO
Protocol: as §1

[5] = compound: O=C(O)C(F)(F)C(F)(F)C(F)(F)C(F)(F)C(F)(F)C(F)(F)C(F)(F)F [Ammonium perfluorooctanoate]; conditions: 2200 nM; in DMSO
Protocol: as §1

[6] = compound: CCOC(=O)CC(=O)C(F)(F)C(F)(F)F [Ethyl pentafluoropropionyl acetate]; conditions: 2200 nM; in DMSO
Protocol: as §1

[7] = compound: O=C(O)CCC(F)(C(F)(F)F)C(F)(F)F [4,4-bis(Trifluoromethyl)-4-fluoropropanoic acid]; conditions: 2200 nM; in DMSO
Protocol: as §1

Perfluorononanoic acid = compound: O=C(O)C(F)(F)C(F)(F)C(F)(F)C(F)(F)C(F)(F)C(F)(F)C(F)(F)C(F)(F)F [Perfluorononanoic acid]; conditions: 2200 nM; in DMSO
Protocol: as §1

[8] = compound: OCC(F)(F)C(F)(F)C(F)(F)C(F)(F)C(F)(F)C(F)(F)C(F)(F)C(F)(F)CO [1H,1H,10H,10H-Perfluorodecane-1,10-diol]; conditions: 2200 nM; in DMSO
Protocol: as §1

[9] = compound: C=CC(=O)OCC(F)(F)C(F)(F)C(F)(F)C(F)(F)C(F)(F)C(F)(F)C(F)(F)C(F)F [1H,1H,9H-Perfluorononyl acrylate]; conditions: 2200 nM; in DMSO
Protocol: as §1

[10] = compound: FC(F)(F)C(F)(F)C(F)(F)C(F)(F)C(F)(F)C(F)(F)C(F)(F)C(F)(F)CCS [2-(Perfluorooctyl)ethanthiol]; conditions: in DMSO
Protocol: as §1

Perfluorooctanoic acid = compound: O=C(O)C(F)(F)C(F)(F)C(F)(F)C(F)(F)C(F)(F)C(F)(F)C(F)(F)F [Perfluorooctanoic acid]; conditions: 2200 nM; in DMSO
Protocol: as §1

Row | Test System | level (log10) (Perfluorodecanoic acid; 2200 nM) | level (log10) (Perfluorodecanoic acid; 6700 nM) | level (log10) (Perfluorodecanoic acid; 20000 nM) | level (log10) (Perfluorooctanamidine; 2200 nM) | level (log10) (Perfluorooctanamidine; 6700 nM) | level (log10) (Perfluorooctanamidine; 20000 nM) | level (log10) (Perfluorooctanamidine; 60000 nM) | level (log10) [1] | level (log10) [2] | level (log10) [3] | level (log10) [4] | level (log10) [5] | level (log10) [6] | level (log10) [7] | level (log10) (Perfluorononanoic acid) | level (log10) [8] | level (log10) [9] | level (log10) ([10]; 740 nM) | level (log10) ([10]; 2200 nM) | level (log10) (Perfluorooctanoic acid)
1 | lMphg:CD69 | -0.024 ± 0.042 | -0.013 ± 0.054 | -0.055 ± 0.052 | 0.005 ± 0.038 | -0.048 ± 0.0028 | -0.052 ± 0.0085 | 0.029 | -0.012 ± 0.082 | 0.018 ± 0.048 | 0.01 ± 0.013 | 0.034 ± 0.031 | -0.027 ± 0.011 | 0.0245 ± 0.021 | 0.0235 ± 0.022 | 0.0225 ± 0.0021 | 0.0255 ± 0.0035 | -0.0195 ± 0.0021 | -0.014 ± 0.051 | -0.035 ± 0.035 | 0.016 ± 0.034
2 | lMphg:SRB | -0.003 ± 0.016 | 0.009 ± 0.0085 | 0.004 ± 0.0057 | 0.0075 ± 0.0021 | -0.006 ± 0.016 | 0.004 ± 0.016 | 0.001 | -0.0105 ± 0.015 | -0.0165 ± 0.0021 | -0.0025 ± 0.005 | 0.003 ± 0.0028 | -0.009 ± 0.0014 | -0.001 ± 0.017 | -0.006 ± 0.0014 | 0.0045 ± 0.005 | -0.002 ± 0.0057 | -0.001 ± 0.0057 | -0.001 ± 0.0057 | -0.006 ± 0.0028 | 0.0055 ± 0.016
3 | HDF3CGF:CXCL9/MIG | -0.023 ± 0.042 | -0.069 ± 0.048 | -0.27 ± 0.061 | 0.0195 ± 0.005 | 0.0055 ± 0.023 | -0.003 ± 0.018 | 0.018 | -0.0255 ± 0.019 | -0.0005 ± 0.011 | -0.011 ± 0.0085 | 0.0035 ± 0.00071 | -0.0165 ± 0.033 | -0.014 ± 0.061 | -0.0185 ± 0.05 | 0.0015 ± 0.0064 | 0.011 ± 0.011 | 0.003 ± 0.017 | -0.0055 ± 0.0078 | -0.0165 ± 0.0078 | -0.006 ± 0.013
4 | LPS:CD69 | -0.0205 ± 0.033 | -0.03 ± 0.011 | -0.048 ± 0.0099 | 0.005 ± 0.04 | -0.025 ± 0.045 | -0.0395 ± 0.04 | -0.132 | 0.003 ± 0.038 | -0.0125 ± 0.052 | -0.0305 ± 0.039 | -0.0155 ± 0.00071 | -0.0075 ± 0.03 | -0.012 ± 0.031 | -0.018 ± 0.05 | 0 ± 0.021 | 0.0185 ± 0.021 | -0.0185 ± 0.00071 | -0.002 ± 0.03 | -0.022 ± 0.024 | 0.0795 ± 0.074
5 | BE3C:CD54/ICAM-1 | 0.01 ± 0.024 | 0.085 | -1.02 ± 0.012 | -0.0025 ± 0.015 | -0.017 ± 0.0028 | -0.019 ± 0.0057 | 0.027 | 0.024 ± 0.027 | 0.0085 ± 0.019 | 0.003 ± 0.013 | 0.003 ± 0.02 | 0.009 ± 0.0057 | -0.001 ± 0.045 | -0.004 ± 0.011 | -0.011 ± 0.017 | -0.0015 ± 0.0078 | 0.001 ± 0.016 | 0.0145 ± 0.037 | 0.0055 ± 0.022 | 0.019 ± 0.021
6 | BE3C:CXCL10/IP-10 | 0.0245 ± 0.0092 | -0.188 ± 0.088 | -1.16 | 0.0045 ± 0.012 | 0.0045 ± 0.023 | -0.0055 ± 0.0035 | 0.003 | -0.0115 ± 0.013 | 0.029 ± 0.042 | 0.0105 ± 0.011 | -0.0075 ± 0.019 | 0.029 ± 0.011 | -0.014 ± 0.0085 | 0.011 ± 0.017 | -0.033 ± 0.0028 | -0.01 ± 0.023 | -0.005 ± 0.011 | 0.0265 ± 0.064 | 0.045 ± 0.044 | -0.0095 ± 0.033
7 | CASM3C:CD87/uPAR | 0.005 ± 0.013 | -0.0055 ± 0.005 | 0.016 ± 0.011 | -0.012 ± 0.017 | -0.011 ± 0.016 | -0.02 ± 0.037 | -0.034 | -0.014 ± 0.0085 | -0.0055 ± 0.021 | -0.0285 ± 0.046 | 0.0025 ± 0.0021 | 0.0255 ± 0.023 | -0.0265 ± 0.022 | 0.008 ± 0.02 | 0.0055 ± 0.0078 | 0.005 ± 0.0099 | 0.0345 ± 0.022 | -0.034 ± 0.048 | -0.0445 ± 0.061 | -0.041 ± 0.054
8 | BT:Secreted IgG | -0.012 ± 0.041 | -0.014 ± 0.033 | -0.018 ± 0.02 | 0.0005 ± 0.012 | 0.0115 ± 0.039 | -0.042 ± 0.0042 | -0.034 | 0.03 ± 0.04 | -0.0185 ± 0.028 | -0.022 ± 0.024 | -0.001 ± 0.047 | 0.0385 ± 0.0078 | 0.0155 ± 0.016 | -0.0335 ± 0.054 | 0.0305 ± 0.016 | 0.0005 ± 0.093 | 0.017 ± 0.042 | 0.019 ± 0.0099 | 0.0235 ± 0.012 | 0.0265 ± 0.0092
9 | CASM3C:CCL2/MCP-1 | 0.0075 ± 0.035 | 0.006 ± 0.02 | 0 ± 0.0042 | 0.0325 ± 0.025 | 0.008 ± 0.024 | 0.011 ± 0.034 | 0.085 | 0.018 ± 0.038 | -0.0065 ± 0.0021 | 0.027 ± 0.0057 | -0.0385 ± 0.057 | -0.002 ± 0.011 | 0.0005 ± 0.022 | 0.0115 ± 0.06 | -0.036 ± 0.052 | 0.0085 ± 0.025 | -0.014 ± 0.0028 | 0.007 ± 0.027 | 0.0015 ± 0.012 | 0.004 ± 0.031
10 | BT:sIL-17F | -0.018 ± 0.088 | 0.019 ± 0.016 | 0.0345 ± 0.13 | -0.0245 ± 0.022 | -0.0225 ± 0.071 | -0.209 ± 0.023 | -0.112 | -0.012 ± 0.04 | 0.0095 ± 0.018 | -0.081 ± 0.048 | 0.027 ± 0.059 | 0.061 ± 0.062 | 0.0095 ± 0.013 | 0.019 ± 0.065 | 0.027 ± 0.072 | 0.0015 ± 0.039 | -0.109 ± 0.12 | -0.211 ± 0.021 | -0.07 ± 0.14 | 0.124 ± 0.13
11 | HDF3CGF:M-CSF | -0.001 ± 0.031 | 0.023 ± 0.0057 | -0.275 ± 0.018 | -0.005 ± 0.014 | -0.017 ± 0.014 | -0.0485 ± 0.018 | -0.177 | 0.023 ± 0.12 | 0.023 ± 0.014 | 0.0295 ± 0.0078 | -0.0215 ± 0.022 | 0.0045 ± 0.00071 | 0.021 ± 0.048 | -0.056 ± 0.057 | 0.0135 ± 0.043 | 0.016 ± 0.069 | -0.007 ± 0.021 | -0.002 ± 0.0099 | -0.007 ± 0.011 | 0.0045 ± 0.0078
12 | SAg:Proliferation | 0.0065 ± 0.029 | 0.0435 ± 0.019 | 0.0255 ± 0.032 | 0.044 ± 0.023 | 0.0195 ± 0.011 | 0 ± 0.048 | -0.565 | -0.0195 ± 0.081 | 0.046 ± 0.014 | -0.089 | -0.0045 ± 0.022 | 0.0195 ± 0.012 | -0.012 ± 0.061 | 0.05 ± 0.064 | -0.0205 ± 0.018 | -0.0215 ± 0.029 | 0.0085 ± 0.013 | 0.0635 ± 0.011 | 0.0235 ± 0.021 | 0.0365 ± 0.00071

An excerpt of these results, comma-delimited.
Row,Test System,level (log10) (Perfluorodecanoic acid; 2200 nM),level (log10) (Perfluorodecanoic acid; 6700 nM),level (log10) (Perfluorodecanoic acid; 20000 nM),level (log10) (Perfluorooctanamidine; 2200 nM),level (log10) (Perfluorooctanamidine; 6700 nM),level (log10) (Perfluorooctanamidine; 20000 nM),level (log10) (Perfluorooctanamidine; 60000 nM),level (log10) [1],level (log10) [2],level (log10) [3],level (log10) [4],level (log10) [5],level (log10) [6],level (log10) [7],level (log10) (Perfluorononanoic acid),level (log10) [8],level (log10) [9],level (log10) ([10]; 740 nM),level (log10) ([10]; 2200 nM),level (log10) (Perfluorooctanoic acid)
9,CASM3C:CCL2/MCP-1,0.0075 ± 0.035,0.006 ± 0.02,0 ± 0.0042,0.0325 ± 0.025,0.008 ± 0.024,0.011 ± 0.034,0.085,0.018 ± 0.038,-0.0065 ± 0.0021,0.027 ± 0.0057,-0.0385 ± 0.057,-0.002 ± 0.011,0.0005 ± 0.022,0.0115 ± 0.06,-0.036 ± 0.052,0.0085 ± 0.025,-0.014 ± 0.0028,0.007 ± 0.027,0.0015 ± 0.012,0.004 ± 0.031
10,BT:sIL-17F,-0.018 ± 0.088,0.019 ± 0.016,0.0345 ± 0.13,-0.0245 ± 0.022,-0.0225 ± 0.071,-0.209 ± 0.023,-0.112,-0.012 ± 0.04,0.0095 ± 0.018,-0.081 ± 0.048,0.027 ± 0.059,0.061 ± 0.062,0.0095 ± 0.013,0.019 ± 0.065,0.027 ± 0.072,0.0015 ± 0.039,-0.109 ± 0.12,-0.211 ± 0.021,-0.07 ± 0.14,0.124 ± 0.13
11,HDF3CGF:M-CSF,-0.001 ± 0.031,0.023 ± 0.0057,-0.275 ± 0.018,-0.005 ± 0.014,-0.017 ± 0.014,-0.0485 ± 0.018,-0.177,0.023 ± 0.12,0.023 ± 0.014,0.0295 ± 0.0078,-0.0215 ± 0.022,0.0045 ± 0.00071,0.021 ± 0.048,-0.056 ± 0.057,0.0135 ± 0.043,0.016 ± 0.069,-0.007 ± 0.021,-0.002 ± 0.0099,-0.007 ± 0.011,0.0045 ± 0.0078
